# Experimental data from the supplement of paper PMC12819154, “High-throughput peptide-centric local stability assay extends protein–ligand identification to membrane proteins, tissues and bacteria” (Nature Structural & Molecular Biology, 2025).
# Amino acid sequences for entries named in this document (tags omitted). A change or cut given only in a name is not applied to a line headed by its entry.
# UniProt Q46896: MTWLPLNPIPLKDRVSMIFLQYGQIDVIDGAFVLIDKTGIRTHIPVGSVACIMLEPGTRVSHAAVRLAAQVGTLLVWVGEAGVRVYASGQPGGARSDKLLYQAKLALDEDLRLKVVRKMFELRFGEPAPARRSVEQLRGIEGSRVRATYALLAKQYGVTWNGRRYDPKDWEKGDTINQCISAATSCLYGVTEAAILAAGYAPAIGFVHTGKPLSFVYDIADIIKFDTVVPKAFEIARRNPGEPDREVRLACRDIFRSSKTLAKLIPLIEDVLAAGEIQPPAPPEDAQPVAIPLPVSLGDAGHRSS
# UniProt Q47158: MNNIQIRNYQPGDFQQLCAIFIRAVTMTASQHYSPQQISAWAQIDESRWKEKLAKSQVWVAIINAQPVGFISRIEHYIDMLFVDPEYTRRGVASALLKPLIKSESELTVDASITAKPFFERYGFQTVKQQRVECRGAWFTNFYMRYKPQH
# UniProt Q46901: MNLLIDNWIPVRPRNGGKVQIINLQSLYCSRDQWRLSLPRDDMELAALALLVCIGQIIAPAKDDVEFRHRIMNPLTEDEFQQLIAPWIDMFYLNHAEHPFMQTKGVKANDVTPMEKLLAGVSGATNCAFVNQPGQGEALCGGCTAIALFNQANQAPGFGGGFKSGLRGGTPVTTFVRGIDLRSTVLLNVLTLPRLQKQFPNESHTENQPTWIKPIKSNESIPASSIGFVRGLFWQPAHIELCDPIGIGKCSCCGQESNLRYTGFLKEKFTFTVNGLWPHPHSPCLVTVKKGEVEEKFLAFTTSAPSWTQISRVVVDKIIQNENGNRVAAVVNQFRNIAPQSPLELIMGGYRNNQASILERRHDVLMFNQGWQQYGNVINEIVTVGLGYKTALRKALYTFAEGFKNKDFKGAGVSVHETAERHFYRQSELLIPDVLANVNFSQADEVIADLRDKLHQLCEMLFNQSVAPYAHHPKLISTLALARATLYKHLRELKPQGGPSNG
# UniProt P77775: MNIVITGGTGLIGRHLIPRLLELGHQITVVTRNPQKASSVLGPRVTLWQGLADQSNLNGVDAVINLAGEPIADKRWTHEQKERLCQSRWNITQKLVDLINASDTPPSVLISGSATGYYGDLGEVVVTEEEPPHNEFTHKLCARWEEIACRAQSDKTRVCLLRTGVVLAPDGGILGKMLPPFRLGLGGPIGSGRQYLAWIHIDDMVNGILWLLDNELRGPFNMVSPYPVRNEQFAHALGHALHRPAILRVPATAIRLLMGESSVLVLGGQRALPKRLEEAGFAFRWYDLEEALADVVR
# UniProt P77804: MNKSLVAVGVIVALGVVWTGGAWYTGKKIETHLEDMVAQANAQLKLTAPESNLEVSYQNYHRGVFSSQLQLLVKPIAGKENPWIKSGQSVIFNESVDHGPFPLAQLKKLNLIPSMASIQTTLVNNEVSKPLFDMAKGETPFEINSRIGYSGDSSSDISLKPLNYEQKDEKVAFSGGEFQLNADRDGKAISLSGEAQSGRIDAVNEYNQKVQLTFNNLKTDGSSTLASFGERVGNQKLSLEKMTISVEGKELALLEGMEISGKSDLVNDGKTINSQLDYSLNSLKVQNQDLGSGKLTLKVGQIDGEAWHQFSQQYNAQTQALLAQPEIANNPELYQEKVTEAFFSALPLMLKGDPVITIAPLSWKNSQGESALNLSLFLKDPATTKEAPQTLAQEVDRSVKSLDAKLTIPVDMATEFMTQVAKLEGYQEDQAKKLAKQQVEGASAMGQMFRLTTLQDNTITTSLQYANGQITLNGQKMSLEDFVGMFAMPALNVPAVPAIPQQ
# UniProt P77743: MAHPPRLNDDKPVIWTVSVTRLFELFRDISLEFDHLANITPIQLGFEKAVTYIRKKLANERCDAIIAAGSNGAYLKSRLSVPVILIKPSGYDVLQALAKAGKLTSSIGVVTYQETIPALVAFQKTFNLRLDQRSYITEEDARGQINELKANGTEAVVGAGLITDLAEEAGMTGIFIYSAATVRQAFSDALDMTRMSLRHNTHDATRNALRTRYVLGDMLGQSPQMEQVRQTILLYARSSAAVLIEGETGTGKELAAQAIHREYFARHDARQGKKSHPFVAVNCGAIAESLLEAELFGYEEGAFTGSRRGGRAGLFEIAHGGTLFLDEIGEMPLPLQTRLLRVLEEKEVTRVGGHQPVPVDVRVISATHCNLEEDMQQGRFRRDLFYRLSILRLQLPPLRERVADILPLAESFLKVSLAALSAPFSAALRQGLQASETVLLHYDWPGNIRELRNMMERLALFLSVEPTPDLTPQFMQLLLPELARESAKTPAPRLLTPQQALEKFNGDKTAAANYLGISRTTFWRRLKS
# UniProt Q46861: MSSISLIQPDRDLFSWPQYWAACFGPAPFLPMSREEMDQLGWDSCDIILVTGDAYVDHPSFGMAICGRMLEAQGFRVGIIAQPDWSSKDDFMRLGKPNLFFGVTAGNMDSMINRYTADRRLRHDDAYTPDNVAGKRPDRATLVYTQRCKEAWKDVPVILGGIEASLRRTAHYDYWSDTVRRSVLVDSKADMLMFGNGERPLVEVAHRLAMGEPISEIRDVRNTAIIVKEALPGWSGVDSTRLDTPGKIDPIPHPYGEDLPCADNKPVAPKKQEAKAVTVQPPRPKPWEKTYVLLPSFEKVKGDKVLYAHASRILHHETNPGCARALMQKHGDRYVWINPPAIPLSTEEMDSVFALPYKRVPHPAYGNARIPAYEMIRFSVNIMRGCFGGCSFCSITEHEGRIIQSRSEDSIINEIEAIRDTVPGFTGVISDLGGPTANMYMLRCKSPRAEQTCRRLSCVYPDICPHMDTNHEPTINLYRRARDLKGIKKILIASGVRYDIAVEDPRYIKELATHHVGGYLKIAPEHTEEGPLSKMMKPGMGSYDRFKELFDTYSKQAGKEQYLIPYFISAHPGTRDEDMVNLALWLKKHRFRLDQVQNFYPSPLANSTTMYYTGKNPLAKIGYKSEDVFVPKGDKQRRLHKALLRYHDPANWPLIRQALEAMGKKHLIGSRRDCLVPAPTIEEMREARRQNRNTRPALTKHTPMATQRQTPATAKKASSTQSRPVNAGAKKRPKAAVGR
# UniProt P77700: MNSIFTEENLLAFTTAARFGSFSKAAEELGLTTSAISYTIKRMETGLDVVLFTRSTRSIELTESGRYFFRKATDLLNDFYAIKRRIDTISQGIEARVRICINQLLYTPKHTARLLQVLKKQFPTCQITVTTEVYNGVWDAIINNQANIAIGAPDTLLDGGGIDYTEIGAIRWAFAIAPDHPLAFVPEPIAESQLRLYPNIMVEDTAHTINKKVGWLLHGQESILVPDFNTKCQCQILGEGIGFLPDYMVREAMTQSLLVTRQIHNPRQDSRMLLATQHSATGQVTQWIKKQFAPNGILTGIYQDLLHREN
# UniProt Q47702: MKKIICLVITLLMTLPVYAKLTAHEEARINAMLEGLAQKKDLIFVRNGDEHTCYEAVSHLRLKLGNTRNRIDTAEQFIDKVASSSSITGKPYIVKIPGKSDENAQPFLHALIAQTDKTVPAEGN
# UniProt P77730: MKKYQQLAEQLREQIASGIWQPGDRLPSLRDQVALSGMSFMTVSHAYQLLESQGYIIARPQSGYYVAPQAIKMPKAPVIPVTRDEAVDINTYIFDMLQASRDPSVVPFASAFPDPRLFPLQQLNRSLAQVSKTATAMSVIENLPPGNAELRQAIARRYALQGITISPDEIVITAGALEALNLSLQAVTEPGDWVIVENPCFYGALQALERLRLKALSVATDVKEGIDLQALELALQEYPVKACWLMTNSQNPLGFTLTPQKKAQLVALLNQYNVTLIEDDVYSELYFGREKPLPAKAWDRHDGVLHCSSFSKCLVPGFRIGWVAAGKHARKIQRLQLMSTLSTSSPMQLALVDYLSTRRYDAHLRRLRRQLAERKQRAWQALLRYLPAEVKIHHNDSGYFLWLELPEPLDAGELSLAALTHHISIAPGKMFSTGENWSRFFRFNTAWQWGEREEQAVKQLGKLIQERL
# UniProt Q46864: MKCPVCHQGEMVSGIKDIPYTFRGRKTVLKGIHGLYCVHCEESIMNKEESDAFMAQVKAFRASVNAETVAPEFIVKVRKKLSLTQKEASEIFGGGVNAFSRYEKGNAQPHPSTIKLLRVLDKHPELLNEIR
# UniProt Q46800: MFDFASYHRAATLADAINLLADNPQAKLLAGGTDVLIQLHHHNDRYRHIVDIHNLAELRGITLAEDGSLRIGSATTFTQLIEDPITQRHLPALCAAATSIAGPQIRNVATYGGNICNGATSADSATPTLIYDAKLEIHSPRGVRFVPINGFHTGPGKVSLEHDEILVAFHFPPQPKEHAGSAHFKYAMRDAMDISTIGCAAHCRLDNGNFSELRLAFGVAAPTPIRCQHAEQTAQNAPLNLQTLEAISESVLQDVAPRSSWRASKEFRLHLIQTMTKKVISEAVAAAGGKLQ
# UniProt Q59385: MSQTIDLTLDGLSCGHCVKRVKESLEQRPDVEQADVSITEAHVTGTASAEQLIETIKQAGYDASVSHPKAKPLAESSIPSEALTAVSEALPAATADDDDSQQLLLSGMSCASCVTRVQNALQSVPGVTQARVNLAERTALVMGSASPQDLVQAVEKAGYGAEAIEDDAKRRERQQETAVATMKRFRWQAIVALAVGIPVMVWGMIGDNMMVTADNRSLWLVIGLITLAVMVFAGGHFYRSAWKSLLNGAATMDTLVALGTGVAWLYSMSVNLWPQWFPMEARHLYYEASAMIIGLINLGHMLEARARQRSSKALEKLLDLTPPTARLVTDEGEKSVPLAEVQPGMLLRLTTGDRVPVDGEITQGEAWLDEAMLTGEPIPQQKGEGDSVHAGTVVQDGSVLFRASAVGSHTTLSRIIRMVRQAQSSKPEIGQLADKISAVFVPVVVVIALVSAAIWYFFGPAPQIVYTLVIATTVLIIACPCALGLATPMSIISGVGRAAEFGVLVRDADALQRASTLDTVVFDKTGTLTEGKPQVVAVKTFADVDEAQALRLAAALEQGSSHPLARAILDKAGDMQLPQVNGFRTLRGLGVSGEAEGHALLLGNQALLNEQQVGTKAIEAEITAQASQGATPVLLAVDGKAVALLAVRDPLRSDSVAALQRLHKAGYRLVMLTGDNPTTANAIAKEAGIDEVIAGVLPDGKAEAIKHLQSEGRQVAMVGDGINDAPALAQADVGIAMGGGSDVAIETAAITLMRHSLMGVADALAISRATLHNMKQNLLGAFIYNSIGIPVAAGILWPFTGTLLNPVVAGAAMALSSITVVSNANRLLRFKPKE
# UniProt Q47147: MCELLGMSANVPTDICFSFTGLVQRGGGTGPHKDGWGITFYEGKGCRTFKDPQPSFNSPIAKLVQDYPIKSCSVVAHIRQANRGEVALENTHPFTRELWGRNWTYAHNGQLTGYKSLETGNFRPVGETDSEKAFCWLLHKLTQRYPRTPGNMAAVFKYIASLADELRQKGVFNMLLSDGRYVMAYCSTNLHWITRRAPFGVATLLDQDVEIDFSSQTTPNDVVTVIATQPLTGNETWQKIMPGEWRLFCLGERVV
# UniProt Q47319: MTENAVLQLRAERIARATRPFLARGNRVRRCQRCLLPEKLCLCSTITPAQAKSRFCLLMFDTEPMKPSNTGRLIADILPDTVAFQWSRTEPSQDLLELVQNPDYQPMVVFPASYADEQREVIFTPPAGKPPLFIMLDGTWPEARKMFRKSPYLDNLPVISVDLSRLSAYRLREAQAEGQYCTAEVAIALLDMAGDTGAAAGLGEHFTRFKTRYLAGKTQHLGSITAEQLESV
# UniProt P77712: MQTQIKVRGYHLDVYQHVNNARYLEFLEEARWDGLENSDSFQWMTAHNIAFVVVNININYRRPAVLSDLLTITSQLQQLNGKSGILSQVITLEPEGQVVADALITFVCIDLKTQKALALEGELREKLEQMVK
# UniProt Q46795: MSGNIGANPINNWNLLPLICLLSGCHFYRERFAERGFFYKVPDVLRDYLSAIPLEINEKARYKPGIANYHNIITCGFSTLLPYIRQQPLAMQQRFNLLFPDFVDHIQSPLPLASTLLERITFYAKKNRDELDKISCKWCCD
# UniProt Q46801: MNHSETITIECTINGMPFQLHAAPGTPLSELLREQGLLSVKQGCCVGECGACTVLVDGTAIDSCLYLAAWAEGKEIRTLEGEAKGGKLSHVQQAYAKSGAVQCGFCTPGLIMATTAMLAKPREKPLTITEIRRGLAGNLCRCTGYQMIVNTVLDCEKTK
# UniProt Q47013: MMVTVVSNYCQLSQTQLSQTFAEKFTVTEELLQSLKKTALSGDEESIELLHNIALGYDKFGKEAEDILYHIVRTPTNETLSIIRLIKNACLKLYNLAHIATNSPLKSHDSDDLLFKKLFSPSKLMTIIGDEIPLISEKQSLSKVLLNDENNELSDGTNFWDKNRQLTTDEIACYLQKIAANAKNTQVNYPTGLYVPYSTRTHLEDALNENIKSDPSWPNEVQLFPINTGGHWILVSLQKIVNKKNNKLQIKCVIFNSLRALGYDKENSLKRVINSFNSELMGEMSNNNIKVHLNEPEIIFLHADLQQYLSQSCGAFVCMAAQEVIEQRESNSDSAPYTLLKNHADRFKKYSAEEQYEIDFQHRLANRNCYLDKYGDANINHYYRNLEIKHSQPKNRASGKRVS
# The other results are listed elsewhere or left out. Most entries show no effect beyond the scatter of the controls.
# Compound: CC1(C)S[C@@H]2[C@H](NC(=O)[C@H](N)c3ccccc3)C(=O)N2[C@H]1C(=O)O [ampicillin]
# Experiment: log2 fold change of tryptic peptide abundance, ligand vs vehicle (limited proteolysis) (log2 ratio); higher = more trypsin-susceptible (destabilized)
# Conditions: ligand concentration: 10 uM; sample: E. coli crude lysate
row,Target,log2 fold change
1,"UniProt P77744 (peptide sequence: SLMPAVISR, peptide start residue: 108)",-0.405
2,"UniProt Q46896 (peptide sequence: VYASGQPGGAR, peptide start residue: 85)",-0.245
3,"UniProt Q47158 (peptide sequence: GAWFTNFYMR, peptide start residue: 136)",-0.274
4,"UniProt Q46901 (peptide sequence: IIQNENGNR, peptide start residue: 318)",-0.675
5,"UniProt P77775 (peptide sequence: LGLGGPIGSGR, peptide start residue: 183)",-0.152
6,"UniProt P77795 (peptide sequence: KPSQLSGGQR, peptide start residue: 131)",-0.817
7,"UniProt P77804 (peptide sequence: LEGYQEDQAKK, peptide start residue: 423)",-0.289
8,"UniProt P77743 (peptide sequence: LLTPQQALEK, peptide start residue: 494)",0.734
9,"UniProt P77735 (peptide sequence: VGDLPEGLSR, peptide start residue: 93)",-0.146
10,"UniProt Q46861 (peptide sequence: ASSTQSRPVNAGAK, peptide start residue: 717)",-0.655
11,"UniProt P77774 (peptide sequence: RELGSVNDFIVDGNR, peptide start residue: 281)",-0.995
12,"UniProt P77700 (peptide sequence: AAEELGLTTSAISYTIKR, peptide start residue: 25)",0.473
13,"UniProt Q06067 (peptide sequence: IFDPFFTTK, peptide start residue: 552)",-0.127
14,"UniProt Q46856 (peptide sequence: RIYEAAR, peptide start residue: 381)",-0.509
15,"UniProt Q47702 (peptide sequence: NGDEHTCYEAVSHLR, peptide start residue: 47)",0.0542
16,"UniProt P77730 (peptide sequence: LFPLQQLNR, peptide start residue: 117)",-0.139
17,"UniProt Q46864 (peptide sequence: CPVCHQGEMVSGIKDIPYTFR, peptide start residue: 3)",-0.269

row,Target,log2 fold change
1,"UniProt Q46907 (peptide sequence: LGAEVGYSR, peptide start residue: 192)",-0.631
2,"UniProt Q46800 (peptide sequence: DAMDISTIGCAAHCR, peptide start residue: 190)",-0.457
3,"UniProt Q46835 (peptide sequence: QMCADPTVK, peptide start residue: 92)",0.0595
4,"UniProt Q59385 (peptide sequence: AAEFGVLVR, peptide start residue: 498)",-0.381
5,"UniProt Q47147 (peptide sequence: GGGTGPHKDGWGITFYEGK, peptide start residue: 26)",-0.179
6,"UniProt Q46811 (peptide sequence: LDYDSALNIR, peptide start residue: 514)",-0.731
7,"UniProt Q47319 (peptide sequence: FKTRYLAGK, peptide start residue: 209)",-0.154
8,"UniProt P77712 (peptide sequence: GYHLDVYQHVNNAR, peptide start residue: 9)",0.0466
9,"UniProt Q46795 (peptide sequence: KNRDELDK, peptide start residue: 126)",-0.474
10,"UniProt Q46812 (peptide sequence: NVTAVQLHPAK, peptide start residue: 6)",0.783
11,"UniProt Q46801 (peptide sequence: LSHVQQAYAK, peptide start residue: 88)",-0.143
12,"UniProt Q46904 (peptide sequence: EPQNLFPLYHHNVER, peptide start residue: 334)",0.192
13,"UniProt Q46897 (peptide sequence: DFLFHVEK, peptide start residue: 36)",0.271
14,"UniProt P77781 (peptide sequence: FEHIGDDTLEATMPVDSR, peptide start residue: 28)",0.479
15,"UniProt Q47013 (peptide sequence: SHDSDDLLFKK, peptide start residue: 107)",-0.495
16,"UniProt Q46866 (peptide sequence: YGVSNGELTGGR, peptide start residue: 87)",-0.158
17,"UniProt Q46829 (peptide sequence: GGKGPSICDVLTGGAHGVPR, peptide start residue: 30)",-0.459

# A portion from further up, for reference:
row,Target,log2 fold change
12,"UniProt P77700 (peptide sequence: AAEELGLTTSAISYTIKR, peptide start residue: 25)",0.473
13,"UniProt Q06067 (peptide sequence: IFDPFFTTK, peptide start residue: 552)",-0.127
